Results deposited as PubChem BioAssay AID1159542 (Gurdon Institute, 2015).
Purpose: 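Which E2 knock-downs increase or decrease frameshift-producing end-joining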. Cells: human U2OS cells with a traffic light reporter. Knock-down reagent: siRNA against human genes, about 60 nM siRNA. Timing: about 72 h. Treatment: I-SceI nuclease and repair donor plasmids transfected 8 h after siRNA to cut the reporter. Measurement: 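Share of mCherry-positive cells by flow cytometry after nuclease and donor transfection, as a ratio to luciferase non-targeting siRNA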. Reading the numbers: mutagenic end-joining vs control, mean: higher = more mutagenic end-joining than control. Active means: 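Active if the mean value relative to control falls under 0.6 or rises over 1.4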.
The whole screen tested 44 reagents; shown is an unselected part. 9 of them (20%) were called active. 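Means of three or more experiments; every active call is a decrease, none for increased end-joining.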 Reagents against one gene are numbered here. No sequences are given here.

After knock-down of UBE2O, the record shows mutagenic end-joining vs control, mean 0.216; active.
Against UBE2J2 the deposit lists mutagenic end-joining vs control, mean 0.819; inactive.
UBE2C gave mutagenic end-joining vs control, mean 0.732; inactive.
Depletion of UBE2U resulted in: mutagenic end-joining vs control, mean 0.652; inactive.
After knock-down of UBE2G1 the results were mutagenic end-joining vs control, mean 0.728; inactive.
LIG3 #1 showed mutagenic end-joining vs control, mean 0.689; inactive.
After knock-down of LIG3 #2, the screen gave mutagenic end-joining vs control, mean 0.752; inactive.
After knock-down of TSG101, the screen gave mutagenic end-joining vs control, mean 0.684; inactive.
With knock-down of UBE2E2, the screen gave mutagenic end-joining vs control, mean 0.809; inactive.
After knock-down of UBE2F, the record shows mutagenic end-joining vs control, mean 0.787; inactive.
After knock-down of UBE2L6 the results were mutagenic end-joining vs control, mean 0.688; inactive.
PRKDC scored mutagenic end-joining vs control, mean 1.19; inactive.
UBE2L3 showed mutagenic end-joining vs control, mean 0.633; inactive.
Against CDC34, the values are mutagenic end-joining vs control, mean 0.649; inactive.

Called active (from the list above):
UBE2O | mutagenic end-joining vs control, mean: 0.216; outcome: active

The list goes on.
Depletion of UBE2N #1 came out at: mutagenic end-joining vs control, mean 0.918; inactive.
For UBE2N #2, the values are mutagenic end-joining vs control, mean 1.09; inactive.
With knock-down of UBE2K, the screen gave mutagenic end-joining vs control, mean 0.807; inactive.
With knock-down of UEVLD, the record shows mutagenic end-joining vs control, mean 0.863; inactive.
Depletion of AKTIP came out at: mutagenic end-joining vs control, mean 0.984; inactive.
Against UBE2V1, the entry reads mutagenic end-joining vs control, mean 0.513; active.
With knock-down of UBE2D4, the screen gave mutagenic end-joining vs control, mean 0.907; inactive.
UBE2D3 showed mutagenic end-joining vs control, mean 0.498; active.
Depletion of UBE2E3 resulted in: mutagenic end-joining vs control, mean 0.705; inactive.
For UBE2A, the values are mutagenic end-joining vs control, mean 0.601; inactive.
Silencing of UBE2W resulted in: mutagenic end-joining vs control, mean 0.549; active.
Against UBE2Q2 the deposit lists mutagenic end-joining vs control, mean 0.608; inactive.
After knock-down of UBE2B, the record shows mutagenic end-joining vs control, mean 0.726; inactive.
UBE2D2 scored mutagenic end-joining vs control, mean 1.13; inactive.
After knock-down of UBE2T the results were mutagenic end-joining vs control, mean 0.509; active.
UBE2D1 showed mutagenic end-joining vs control, mean 0.559; active.
Silencing of UBE2V2 gave: mutagenic end-joining vs control, mean 0.515; active.
Depletion of RBBP8 came out at: mutagenic end-joining vs control, mean 0.801; inactive.
